Assay results: patent US20190060239A1, “Technology for the Preparation of Microparticles” (Ansun Biopharma, Inc., priority 2007, published 2019)

Test: Microsphere formation, size and appearance by light microscopy
Type: physicochemical
Conditions: 2 mg/ml paclitaxel
Experimental: 4) DAS181+5 mM sodium citrate, pH 5.0+10% isopropanol; • Plastic microcentrifuge tubes containing the cocktails with ingredients as described in 1)-4) above were gradually cooled from: • (a) ambient temperature (about 25° C.) to 4° C. by placing the cocktails in a refrigerator, followed by: • (b) cooling to −20° C. by placing the resulting cocktail from (a) in a freezer, followed by: • (c) freezing to −80° C. by placing the resulting cocktail from b) in a freezer.
Freezing to −80° C. is carried out to remove ingredients from the cocktail other than the microspheres (e.g., solvent, etc.) by freeze-drying. Cocktail 4) was prepared in triplicate, two aliquots in plastic tubes and one in a glass tube. One aliquot (in a plastic tube) was cooled as described above, while the two other aliquots (one in a plastic tube and one in a glass tube) were subjected to snap cooling/freezing by dipping the tubes into liquid nitrogen.
Upon freezing, all tubes were placed into the lyophilizer and the volatiles (water and isopropanol) were removed by sublimation, leaving the dry pellets.
The dry pellets recovered from the cocktails treated as described above, were tested for the presence of microspheres.
DAS181 was purified and used to prepare microspheres as described above in Example 1 (see cocktail 4)), using a combination of DAS181 protein (10 mg/ml), citrate counterion (sodium citrate, 5 mM) and isopropanol organic solvent (10%, 20% or 30%). The resulting cocktail solutions were cooled from ambient temperature (about 25° C.) to 4° C., followed by cooling to −20° C., followed by freezing to −80° C., as described in Example 1. Upon freezing to −80° C., the tubes are placed in a lyophilizer and the volatiles (water and isopropanol) were removed by sublimation, leaving the dry powder containing microspheres.
DAS181 was purified and used to prepare microspheres as described above in Example 1 (see cocktail 4)), using a combination of DAS181 protein (5 mg/ml or 10 mg/ml), citrate counterion (sodium citrate, 5 mM) and isopropanol (5% or 20%). […]

CC(=O)O[C@H]1C(=O)[C@@]2(C)[C@H]([C@H](OC(=O)c3ccccc3)[C@]3(O)C[C@H](OC(=O)[C@H](O)[C@@H](NC(=O)c4ccccc4)c4ccccc4)C(C)=C1C3(C)C)[C@]1(OC(C)=O)CO[C@@H]1C[C@@H]2O [Paclitaxel]
solvent concentration forming the best microspheres (solvent DMSO, 2 mM Na-citrate buffer pH 5.0): 50% | solvent concentration forming the best microspheres (solvent isopropanol, 2 mM Na-citrate buffer pH 5.0 as antisolvent/counterion): 50% | solvent concentration forming the best microspheres (solvent t-butanol, 2 mM Na-citrate buffer pH 5.0): 90%
